{"source": "paper PMC7819943", "about": "“Rice protein-binding microarrays: a tool to detect cis-acting elements near promoter regions in rice”", "note": "The other results are listed elsewhere or left out."}
{"molecular_target": "T1, OsSMF1 (Oryza sativa, UniProt Q6ZLB0 1-436)", "T1 sequence": "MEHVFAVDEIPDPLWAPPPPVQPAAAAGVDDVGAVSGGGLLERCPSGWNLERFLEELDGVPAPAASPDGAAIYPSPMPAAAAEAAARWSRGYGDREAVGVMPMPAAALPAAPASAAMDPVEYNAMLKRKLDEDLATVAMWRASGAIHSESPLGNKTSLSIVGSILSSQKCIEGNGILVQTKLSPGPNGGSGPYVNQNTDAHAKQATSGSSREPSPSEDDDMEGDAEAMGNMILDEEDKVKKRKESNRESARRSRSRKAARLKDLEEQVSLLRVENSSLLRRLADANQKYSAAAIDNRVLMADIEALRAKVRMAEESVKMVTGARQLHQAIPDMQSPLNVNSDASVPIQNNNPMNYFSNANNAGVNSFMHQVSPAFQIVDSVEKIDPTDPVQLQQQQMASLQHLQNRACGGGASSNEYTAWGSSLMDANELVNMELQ", "assay": "protein-binding microarray (RPBM); PBS, 2% BSA, 51.3 ng/ul salmon testes DNA, 50 uM zinc acetate, 200 nM TF, 25 C, 1 h; high values mean tight binding", "settings": "protein: recombinant; tags: N-terminal polyhistidine and DsRed monomer fusion (pET32a); chain copies: 2; label: CyDye5-dUTP incorporated in the synthesized complementary strand; 3' TTTTT single-stranded linker to array surface; dsDNA, one strand shown", "in_short": "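Ni–NTA purification followed expression in E. coli BL21-CodonPlus of transcription factors fused N-terminally to a polyhistidine tag and DsRed. At 200 nM in PBS with 2% BSA, salmon testes DNA and 50 µM zinc acetate, the protein was incubated for 1 h at 25 °C with a custom Agilent array that had been primer-extended with Cy5-dUTP and blocked with 2% BSA. After washing, the array was read on an Axon 4000B scanner. The binding signal is per-feature fluorescence intensity in arbitrary units.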"}
{"sequence": "AAAGAATCAGCCACCTCACATGATACTATTATGATATGGTCGGAGTCACCTAGTGCAG", "binding signal": "4260 fluorescence intensity (a.u.)"}
{"sequence": "TGTGCGCGCGTCACGGTTTCCTTCCACGTCTCGTCGCTTCCGGAGTCACCTAGTGCAG", "binding signal": "6100 fluorescence intensity (a.u.)"}
{"sequence": "CGTCGTCTCTGTCAAACAACAGACATGGTCCACCCAAGAGCGGAGTCACCTAGTGCAG", "binding signal": "5380 fluorescence intensity (a.u.)"}
{"sequence": "ATACAAGACAAATCGATTAACATAAGATCGATATATCGCTCGGAGTCACCTAGTGCAG", "binding signal": "24700 fluorescence intensity (a.u.)"}
{"sequence": "GCGTGGCGCCACGTGACGCCCGGCGCGCGCGCGCGTCCGGCGGAGTCACCTAGTGCAG", "binding signal": "16200 fluorescence intensity (a.u.)"}
{"sequence": "CACATAACGCACAGACTCAGCCATGTAATGTACTCTACACCGGAGTCACCTAGTGCAG", "binding signal": "3570 fluorescence intensity (a.u.)"}
{"sequence": "TGATGGTGGAACAGTGACTGGATTCATCTACAGAAAGAAACGGAGTCACCTAGTGCAG", "binding signal": "4870 fluorescence intensity (a.u.)"}
{"sequence": "AGGGTGCAGGAAAAGGATGCGGGCCGCCACGTGTCCCGCCCGGAGTCACCTAGTGCAG", "binding signal": "16800 fluorescence intensity (a.u.)"}
{"sequence": "ACTCAGTCTGTACTACCTGTACGTACGTGGCCGCCGCTAGCGGAGTCACCTAGTGCAG", "binding signal": "7360 fluorescence intensity (a.u.)"}
{"sequence": "ACCAGTCCACTCCACAGTCTCCCACAGCGCCACCACGGTGCGGAGTCACCTAGTGCAG", "binding signal": "3750 fluorescence intensity (a.u.)"}
{"sequence": "AGAGGGTGATTAAATCATGTCTTGTCATTGCTAATCCAAGCGGAGTCACCTAGTGCAG", "binding signal": "3760 fluorescence intensity (a.u.)"}
{"sequence": "AAAGTCTCTTAATCCTGTGCAGAATGAGTGTGTCCACAAGCGGAGTCACCTAGTGCAG", "binding signal": "3790 fluorescence intensity (a.u.)"}
{"sequence": "ACCTAGATTCTTATATTCTAAGAATCTGTAGTTATATAATCGGAGTCACCTAGTGCAG", "binding signal": "27200 fluorescence intensity (a.u.)"}
{"sequence": "GTAATATATTTCCACGTGCACTCTGTTGCATTGAAATCGCCGGAGTCACCTAGTGCAG", "binding signal": "5110 fluorescence intensity (a.u.)"}
{"sequence": "TCAGCCGTTGATGTCATGATCGGACGGCTGAGATCGTCTCCGGAGTCACCTAGTGCAG", "binding signal": "3290 fluorescence intensity (a.u.)"}
{"sequence": "AACGTTGGTATAGTTGTGTGTCAATGATGTGTTGTGTTTGCGGAGTCACCTAGTGCAG", "binding signal": "3450 fluorescence intensity (a.u.)"}
{"sequence": "CCCCGAGAACCCACCGCGAGGCATTCTCCTCCTCCAATCCCGGAGTCACCTAGTGCAG", "binding signal": "17600 fluorescence intensity (a.u.)"}
{"sequence": "TTGATTATTTGTCTCACTTCCAAGTCAGCATAATGCTTTACGGAGTCACCTAGTGCAG", "binding signal": "4490 fluorescence intensity (a.u.)"}
{"sequence": "ATTCAATGCAACTAGGCATGGCGCTGGCCGCTGGCAGAGTCGGAGTCACCTAGTGCAG", "binding signal": "3290 fluorescence intensity (a.u.)"}
{"sequence": "TGCAACGGTAGCATCGCGTAAAAGAAAGAGAAATCTCCCGCGGAGTCACCTAGTGCAG", "binding signal": "3140 fluorescence intensity (a.u.)"}
{"sequence": "GATTCGCGTCCTCCGTTTGCTTCGCTTCTTCTTCTAGAACCGGAGTCACCTAGTGCAG", "binding signal": "3490 fluorescence intensity (a.u.)"}
{"sequence": "GACCGGCCGTGAGTCGTTGTAACTCTGATACGCTGTAATACGGAGTCACCTAGTGCAG", "binding signal": "3350 fluorescence intensity (a.u.)"}
{"sequence": "GCGCCGGGCCGCCACGGCTCAGTGGCGCGCCACGCGCGCGCGGAGTCACCTAGTGCAG", "binding signal": "4070 fluorescence intensity (a.u.)"}
